No constants are given. Whether binding was seen depends on the method and setting. Binding seen in cells or lysates may run through a third protein. Some results given as binding are weak or reduced against the parent protein; the word gives no strength.
What was measured:
[1] = molecular target: GST-ARDBD (androgen receptor 505-635) (UniProt P10275); assay: GST pulldown of 35S-labeled PAKSI, autoradiogram
[2] = molecular target: GST-ERHBD (estrogen receptor hormone binding domain fusion protein) (UniProt P03372); assay: GST pulldown of 35S-labeled PAKSI, autoradiogram
[3] = molecular target: GST-ARtruncLBD (androgen receptor truncated LBD, 634-804) (UniProt P10275); assay: GST pulldown of 35S-labeled PAKSI, autoradiogram
[4] = molecular target: GST-ERHBD (estrogen receptor hormone binding domain fusion protein) (UniProt P03372); assay: GST pulldown of 35S-labeled PAKSI, with or without estradiol or tamoxifen
[5] = molecular target: GST-ARDBD (androgen receptor 505-635) (UniProt P10275); assay: GST pulldown of 35S-labeled PAKSI, with or without DHT
[6] = molecular target: GST-ARDBD+LBD (androgen receptor 505-919) (UniProt P10275); assay: as above
[7] = molecular target: GST-ARtruncLBD (androgen receptor truncated LBD, 634-804) (UniProt P10275); assay: as above
[8] = molecular target: GST-ARZnf (androgen receptor zinc fingers, 553-635) (UniProt P10275); assay: as above
[9] = molecular target: GST-AR3′H (androgen receptor 3′ hinge, 634-668) (UniProt P10275); assay: as above

By UniProt entry, the sequences of proteins in these tests, tags left out. Residues count along the entry.
GST-ARDBD+LBD (androgen receptor 505-919) (P10275, residues 505-919): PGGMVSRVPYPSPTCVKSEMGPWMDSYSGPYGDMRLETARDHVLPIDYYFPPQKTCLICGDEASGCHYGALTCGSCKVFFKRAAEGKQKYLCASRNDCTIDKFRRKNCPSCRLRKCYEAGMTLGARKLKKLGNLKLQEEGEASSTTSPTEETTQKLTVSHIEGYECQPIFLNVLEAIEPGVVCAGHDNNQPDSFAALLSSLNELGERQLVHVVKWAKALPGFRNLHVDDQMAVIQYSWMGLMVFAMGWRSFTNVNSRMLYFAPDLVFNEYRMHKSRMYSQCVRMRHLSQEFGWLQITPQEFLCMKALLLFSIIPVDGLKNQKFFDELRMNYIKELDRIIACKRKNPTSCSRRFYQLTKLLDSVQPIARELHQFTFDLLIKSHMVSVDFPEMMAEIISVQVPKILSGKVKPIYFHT
GST-ARDBD (androgen receptor 505-635) (P10275, residues 505-635): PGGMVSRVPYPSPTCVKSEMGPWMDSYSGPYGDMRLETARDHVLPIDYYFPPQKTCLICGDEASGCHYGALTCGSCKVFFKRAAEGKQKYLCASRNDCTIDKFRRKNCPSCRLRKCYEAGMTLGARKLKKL
GST-ARZnf (androgen receptor zinc fingers, 553-635) (P10275, residues 553-635): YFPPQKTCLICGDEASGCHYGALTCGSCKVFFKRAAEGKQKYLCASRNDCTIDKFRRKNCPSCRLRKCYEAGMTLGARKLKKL
GST-ARtruncLBD (androgen receptor truncated LBD, 634-804) (P10275, residues 634-804): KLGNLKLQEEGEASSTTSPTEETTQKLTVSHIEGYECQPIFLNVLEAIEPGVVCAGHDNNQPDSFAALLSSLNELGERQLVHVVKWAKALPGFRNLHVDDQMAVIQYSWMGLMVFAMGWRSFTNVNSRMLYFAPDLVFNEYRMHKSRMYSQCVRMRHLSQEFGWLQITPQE
GST-AR3′H (androgen receptor 3′ hinge, 634-668) (P10275, residues 634-668): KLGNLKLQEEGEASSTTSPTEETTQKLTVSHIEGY
UniProt P03372, residues 282-595: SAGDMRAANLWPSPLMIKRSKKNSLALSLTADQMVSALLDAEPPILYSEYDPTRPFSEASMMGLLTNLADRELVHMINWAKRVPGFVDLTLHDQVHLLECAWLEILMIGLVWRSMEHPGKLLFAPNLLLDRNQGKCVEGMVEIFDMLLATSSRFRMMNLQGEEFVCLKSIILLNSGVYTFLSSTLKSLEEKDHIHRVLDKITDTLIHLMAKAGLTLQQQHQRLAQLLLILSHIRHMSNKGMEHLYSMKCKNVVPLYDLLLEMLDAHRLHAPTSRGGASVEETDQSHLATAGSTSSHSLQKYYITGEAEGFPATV

Measured: binding

B1: 35S-labeled PAKSI (enzyme)
chain: MFRKKKKKRPEISAPQNFQHRVHTSFDPKEGKFVGLPPQWQNILDTLRRPKPVVDPSRITRVQLQPMKTVVRGSAMPVDGYISGLLNDIQKLSVISSNTLRGRSPTSRRRAQSLGLLGDEHWATDPDMYLQSPQSERTDPHGLYLSCNGGTPAGHKQMPWPEPQSPRVLPNGLAAKAQSLGPAEFQGASQRCLQLGACLQSSPPGASPPTGTNRHGMKAAKHGSEEARPQSCLVGSATGRPGGEGSPSPKTRESSLKRRLFRSMFLSTAATAPPSSSKPGPPPQSKPNSSFRPPQKDNPPSLVAKAQSLPSDQPVGTFSPLTTSDTSSPQKSLRTAPATGQLPGRSSPAGSPRTWHAQISTSNLYLPQDPTVAKGALAGEDTGVVTHEQFKAALRMVVDQGDPRLLLDSYVKIGEGSTGIVCLAREKHSGRQVAVKMMDLRKQQRRELLFNEVVIMRDYQHFNVVEMYKNYLVGEELWVLMEFLQGGALTDIVSQVRLNEEQIATVCEAVLQALAYLHAQGVIHRDIKSDSILLTLDGRVKLSDFGFCAQISKDVPKRKSLVGTPYWMAPEVISRSLYATEVDIWSLGIMVIEMVDGEPPYFSDSPVQAMKRLRDSPPPKLKNSHKVSPVLRDFLERMLVRDPQERATAQELLDHPFLLQTGLPECLVPLIQLYRKQTSTC
modifications: 35S-labeled
binds: all assays above

Source: patent US20030166623A1
